{
  "sequences": {"note": "By UniProt entry, the sequences of proteins in these tests, tags left out. Residues count along the entry.", "UniProt O42275, 24-633": "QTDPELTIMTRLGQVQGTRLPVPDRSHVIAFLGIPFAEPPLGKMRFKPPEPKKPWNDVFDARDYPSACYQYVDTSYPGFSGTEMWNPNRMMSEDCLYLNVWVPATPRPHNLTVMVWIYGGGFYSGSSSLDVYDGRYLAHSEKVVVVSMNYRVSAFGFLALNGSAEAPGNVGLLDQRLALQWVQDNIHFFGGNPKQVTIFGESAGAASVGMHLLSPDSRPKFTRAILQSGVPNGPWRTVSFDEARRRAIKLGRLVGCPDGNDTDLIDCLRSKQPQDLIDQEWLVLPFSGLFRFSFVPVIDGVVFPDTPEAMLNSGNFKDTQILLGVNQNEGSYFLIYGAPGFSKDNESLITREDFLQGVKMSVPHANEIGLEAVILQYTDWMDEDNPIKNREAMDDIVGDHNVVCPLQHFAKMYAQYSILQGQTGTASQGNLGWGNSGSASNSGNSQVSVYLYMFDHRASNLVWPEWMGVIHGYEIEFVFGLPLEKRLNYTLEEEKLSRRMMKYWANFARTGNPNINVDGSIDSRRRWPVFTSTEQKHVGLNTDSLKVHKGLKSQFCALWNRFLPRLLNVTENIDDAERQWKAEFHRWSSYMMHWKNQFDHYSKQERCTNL"},
  "source": "patent US20230330045A1",
  "about": "(priority 2020, published 2023)",
  "molecular_target": "eel acetylcholinesterase (AChE) (Electrophorus electricus, UniProt O42275)",
  "assay": "Eel AChE fluorescence assay (AMPLEX Red kit)",
  "assay_type": "biochemical",
  "settings": "single-point screen at 20 μM; active = ≥50% inhibition; read-out: inhibition of enzyme activity compared to DMSO control (screen)",
  "experimental": "Enzymatic reactions consisted of 50 μM acetylcholine, 200 μM AIVIPLEX™ Red reagent, 1 U/mL horseradish peroxidase, 0.1 U/mL choline oxidase and 0.096 U/mL acetylcholinesterase, with 30 1% DMSO. […] Control reactions lacking acetylcholinesterase but containing 5 μM H2O2 in presence of compounds were analyzed at the same wavelength to exclude compounds that display assay interference. Dose-response curves were performed in duplicate.",
  "data": [
    {"smiles": "CCCCCCCCCCCCCCCC[n+]1ccccc1", "note": "[cetylpyridinium]", "values": [
      {"measurement": "inhibition at 20 µM", "result": "≥ 50", "unit": "%"}
    ]}
  ]
}
